Test results as given in PMC12519461, “Structural Exploitation of Cinnarizine Identified Novel Drug-Like Anthelmintic Agents Against Angiostrongylus cantonensis” (ACS Infectious Diseases, 2025).

Columns and labels:
Type in all cases: cell-based
[1] = Cytotoxicity in HaCat cells (MTT, 72 h); details: human, from 500 μM
Experimental: Cytotoxicity was assessed using the MTT assay. After 72 h, MTT solution was added, followed by 3 h of incubation. Absorbance was measured at 595 nm using an Epoch Microplate Spectrophotometer (BioTek Instruments, Winooski, VT, USA). Assays were performed in triplicate and repeated three times.

[2] = test system: A. cantonensis L3 larvae; experiment: Anthelmintic activity against A. cantonensis infective third-stage larvae (motility/viability, 24 h); details: Angiostrongylus cantonensis, in vitro, 21 °C, read-out: A. cantonensis EC50 (μM ± SEM) L3
Experimental: (§1) Larvae were washed three times in RPMI 1640 medium supplemented with 100 U/mL penicillin and 100 μg/mL streptomycin. Approximately 50 larvae were allocated into individual wells of a 96-well plate containing 200 μL of final volume of RPMI medium. […] Approximately 50 larvae were transferred to each well of a 96-well plate containing RPMI medium. […] Larval viability was monitored at 0 and 24 h post-treatment. […] Assays were performed in triplicate and repeated three times.

[3] = test system: A. cantonensis L1 larvae; experiment: Anthelmintic activity against A. cantonensis first-stage larvae (motility/viability, 24 h); details: Angiostrongylus cantonensis, in vitro, 21 °C, read-out: A. cantonensis EC50 (μM ± SEM) L1
Experimental: as §1

SMILES: C(=C\c1ccccc1)/CN1CCN(C(c2ccccc2)c2ccccc2)CC1 [compound 1, cinnarizine]
- CC50 at 72 h [1]: > 500 µM
- EC50 [2]: 16.3 ± 1.8 µM
- EC50 [3]: 45.9 ± 6.3 µM
